Experimental data reported in patent US12257237B2 (priority 2017, dated 2025).
“And” between values parts separate entries of the source, which are not always exact repeats. Equal entries are not always repeated. The source gives many values for each of these; only a part stands here.

Key:
[1] = test system: DD013 dedifferentiated liposarcoma; experiment: Antitumour activity in DD013 dedifferentiated liposarcoma xenograft model; format: in vivo, Athymic nude mice; conditions: EDO80: EDO-S101 80 mg/kg single dose, 80 mg/kg
Method: (§1) Experiments were performed with female Athymic nude mice, 9-10 weeks old obtained from Harlan Laboratories (Udine, Italy). They were maintained under Specific Pathogen Free conditions with constant temperature and humidity, according to the institutional guidelines.
(§2) Tumour growth mice was monitored two/three times a week (depending on tumour growth rate, to avoid unnecessary stress to the animals) by Vernier caliper. Mice were sacrificed when tumour reached a mean weight of 2±0.5 gr. The antitumour activity will be expressed as T/C %, where T and C were the mean tumour weight of treated and control groups, respectively. Mice were monitored daily and weighted at least two times a week. Tolerability was evaluated on the basis of body weight loss (BWL) and clinical observation.
(§3) Statistical analysis was performed with GraphPad Prism version 6.01 software (GraphPad software, Inc., La Jolla, CA, USA). ANOVA test was performed to evaluate if there were statistically significant differences between treated and control groups.
Briefly, xenografts were obtained by transplanting 3-4 mm tumour fragments s.c. in the flanks of mice. The growing tumour masses were measured with the aid of a Vernier caliper, and the tumour weights (TW, 1 mm^3=1 mg) were calculated by the formula: length×(width) 2/2. When tumour load achieved about 200-400 mg, mice were randomized into the experimental groups.

[2] = test system: TC-71 Ewing sarcoma; experiment: Antitumour activity in TC-71 Ewing sarcoma xenograft model; format: in vivo, Athymic nude mice
Method: as §1, §2, §3
5×10^6 TC-71 cells were inoculated subcutaneously in the right flank of mice. The growing tumour masses were measured with the aid of a Vernier caliper, and the tumour weights (1 mm^3=1 mg) were calculated by the formula: length×(width) 2/2. When tumour load achieved about 100 mg, mice were randomized into the experimental groups and treatment started.

## Cn1c(CCCCCCC(=O)NO)nc2cc(N(CCCl)CCCl)ccc21 [EDO-S101, 7-(5-(bis(2-chloroethyl)amino)-1-methyl-1H-benzo[d]imidazol-2-yl)-N-hydroxyheptanamide]
[1]; day 40 from inoculum
  DD0113 tumour weight, individual mouse: 257.3 mg and 140.9 mg and 130.0 mg and 119.3 mg
[1]; day 43 from inoculum
  DD0113 tumour weight, individual mouse: 284.6 mg and 164.8 mg and 116.9 mg and 109.5 mg
[1]; day 47 from inoculum
  DD0113 tumour weight, individual mouse: 335.7 mg and 167.6 mg and 97.1 mg and 132.0 mg
[1]; day 50 from inoculum
  DD0113 tumour weight, individual mouse: 416.1 mg and 184.9 mg and 91.6 mg and 171.9 mg
[1]; day 54 from inoculum
  DD0113 tumour weight, individual mouse: 708.8 mg and 836.1 mg and 469.2 mg and 456.3 mg and 339.2 mg and 434.6 mg and 213.4 mg and 125.8 mg and 186.9 mg
[1]; day 58 from inoculum
  DD0113 tumour weight, individual mouse: 920.2 mg and 863.6 mg and 593.4 mg and 628.6 mg and 525.3 mg and 442.9 mg and 248.6 mg and 167.1 mg and 212.9 mg
[1]; day 62 from inoculum
  DD0113 tumour weight, individual mouse: 943.1 mg and 970.6 mg and 633.0 mg and 680.2 mg and 527.0 mg and 583.0 mg and 199.9 mg and 187.7 mg and 219.1 mg
[1]; day 65 from inoculum
  DD0113 tumour weight, individual mouse: 1025.7 mg and 939.0 mg and 636.4 mg and 670.6 mg and 491.0 mg and 567.8 mg and 201.7 mg and 107.7 mg and 222.7 mg
[1]; day 69 from inoculum
  DD0113 tumour weight, individual mouse: 1144.1 mg and 909.3 mg and 591.5 mg and 550.9 mg and 478.8 mg and 587.8 mg and 164.5 mg and 146.5 mg and 211.1 mg
[1]; day 75 from inoculum
  DD0113 tumour weight, individual mouse: 1250.1 mg and 779.7 mg and 675.2 mg and 634.0 mg and 567.6 mg and 519.9 mg and 185.4 mg and 158.8 mg and 277.5 mg
[1]; day 79 from inoculum
  DD0113 tumour weight, individual mouse: 1330.0 mg and 618.2 mg and 650.1 mg and 690.9 mg and 573.1 mg and 621.4 mg and 212.9 mg and 135.0 mg and 245.2 mg
[1]; day 83 from inoculum
  DD0113 tumour weight, individual mouse: 1450.9 mg and 575.5 mg and 509.7 mg and 400.2 mg and 507.9 mg and 115.7 mg and 117.9 mg and 122.5 mg
[1]; day 87 from inoculum
  DD0113 tumour weight, individual mouse: 1616.4 mg and 647.4 mg and 823.3 mg and 496.0 mg and 665.8 mg and 136.4 mg and 195.7 mg and 171.6 mg
[1]; day 90 from inoculum
  DD0113 tumour weight, individual mouse: 1617.7 mg and 735.1 mg and 987.9 mg and 466.5 mg and 740.1 mg and 153.4 mg and 227.0 mg and 182.9 mg
[1]; day 94 from inoculum
  DD0113 tumour weight, individual mouse: 2114.0 mg and 1048.7 mg and 1242.6 mg and 555.8 mg and 814.4 mg and 240.1 mg and 306.5 mg and 285.8 mg
[1]; day 98 from inoculum
  DD0113 tumour weight, individual mouse: 2225.7 mg and 1385.7 mg and 1194.7 mg and 782.4 mg and 918.1 mg and 164.4 mg and 464.1 mg and 282.5 mg
[1]; day 100 from inoculum
  DD0113 tumour weight, individual mouse: 3065.0 mg and 1722.4 mg and 1733.1 mg and 996.2 mg and 1052.7 mg and 303.2 mg and 413.3 mg and 392.7 mg
[1]; day 103 from inoculum
  DD0113 tumour weight, individual mouse: 2981.4 mg and 1979.3 mg and 1845.5 mg and 1231.1 mg and 1125.6 mg and 320.3 mg and 529.9 mg and 396.4 mg
[2]; EDO40: 40 mg/kg i.v. q7dx3, day 9 from inoculum
  TC-71 tumour weight, individual mice: 210.6 mg and 147.7 mg and 112.5 mg and 110.5 mg and 85.6 mg and 72.3 mg and 51.9 mg and 37.4 mg
[2]; EDO40: 40 mg/kg i.v. q7dx3, day 11 from inoculum
  TC-71 tumour weight, individual mice: 398.0 mg and 222.8 mg and 185.7 mg and 145.9 mg and 159.8 mg and 110.1 mg and 40.4 mg
[2]; EDO40: 40 mg/kg i.v. q7dx3, day 14 from inoculum
  TC-71 tumour weight, individual mice: 482.6 mg and 244.5 mg and 150.6 mg and 130.2 mg and 133.7 mg and 93.9 mg and 28.7 mg
[2]; EDO40: 40 mg/kg i.v. q7dx3, day 16 from inoculum
  TC-71 tumour weight, individual mice: 732.9 mg and 274.3 mg and 208.5 mg and 127.4 mg and 129.2 mg and 151.1 mg and 31.8 mg
[2]; EDO40: 40 mg/kg i.v. q7dx3, day 18 from inoculum
  TC-71 tumour weight, individual mice: 1028.4 mg and 437.5 mg and 227.9 mg and 176.0 mg and 114.7 mg and 225.3 mg and 25.7 mg
[2]; EDO40: 40 mg/kg i.v. q7dx3, day 21 from inoculum
  TC-71 tumour weight, individual mice: 1377.1 mg and 312.3 mg and 174.8 mg and 194.1 mg and 132.0 mg and 217.6 mg and 30.6 mg
[2]; EDO40: 40 mg/kg i.v. q7dx3, day 23 from inoculum
  TC-71 tumour weight, individual mice: 1901.8 mg and 377.8 mg and 329.7 mg and 273.0 mg and 220.8 mg and 458.2 mg and 39.9 mg
[2]; EDO40: 40 mg/kg i.v. q7dx3, day 25 from inoculum
  TC-71 tumour weight, individual mice: 1964.4 mg and 473.5 mg and 349.6 mg and 257.3 mg and 299.0 mg and 456.3 mg and 35.8 mg
[2]; EDO40: 40 mg/kg i.v. q7dx3, day 28 from inoculum
  TC-71 tumour weight, individual mice: 2668.1 mg and 420.1 mg and 515.7 mg and 405.6 mg and 505.4 mg and 570.1 mg and 51.6 mg
[2]; EDO40: 40 mg/kg i.v. q7dx3, day 30 from inoculum
  TC-71 tumour weight, individual mice: 3428.9 mg and 513.3 mg and 927.1 mg and 763.7 mg and 793.9 mg and 827.6 mg and 134.4 mg
[2]; EDO40: 40 mg/kg i.v. q7dx3, day 32 from inoculum
  TC-71 tumour weight, individual mice: 3598.6 mg and 650.1 mg and 1375.3 mg and 1254.2 mg and 1384.8 mg and 1164.4 mg and 205.0 mg
[2]; EDO60: 60 mg/kg i.v. q7dx3, day 9 from inoculum
  TC-71 tumour weight, individual mice: 304.5 mg and 124.5 mg and 100.8 mg and 87.5 mg and 82.1 mg and 70.7 mg and 52.7 mg and 26.2 mg
[2]; EDO60: 60 mg/kg i.v. q7dx3, day 11 from inoculum
  TC-71 tumour weight, individual mice: 394.6 mg and 149.3 mg and 134.2 mg and 64.9 mg and 141.3 mg and 60.8 mg and 70.8 mg and 26.9 mg
[2]; EDO60: 60 mg/kg i.v. q7dx3, day 14 from inoculum
  TC-71 tumour weight, individual mice: 307.3 mg and 81.3 mg and 71.3 mg and 29.0 mg and 51.6 mg and 20.5 mg and 32.0 mg and 16.1 mg
[2]; EDO60: 60 mg/kg i.v. q7dx3, day 18 from inoculum
  TC-71 tumour weight, individual mice: 122.1 mg and 9.6 mg and 29.0 mg and 6.2 mg and 12.2 mg and 3.4 mg (2×) and 7.9 mg
[2]; EDO60: 60 mg/kg i.v. q7dx3, day 21 from inoculum
  TC-71 tumour weight, individual mice: 77.3 mg and 2.1 mg and 17.0 mg and 3.3 mg (2×) and 5.5 mg and 3.6 mg and 0.7 mg
[2]; EDO60: 60 mg/kg i.v. q7dx3, day 23 from inoculum
  TC-71 tumour weight, individual mice: 108.1 mg and 0.4 mg and 31.9 mg and 5.7 mg and 0.6 mg (2×) and 2.1 mg and 3.3 mg
[2]; EDO60: 60 mg/kg i.v. q7dx3, day 25 from inoculum
  TC-71 tumour weight, individual mice: 94.0 mg and 1.1 mg and 48.5 mg and 5.7 mg and 9.0 mg and 3.2 mg and 1.3 mg
[2]; EDO60: 60 mg/kg i.v. q7dx3, day 28 from inoculum
  TC-71 tumour weight, individual mice: 66.2 mg and 28.4 mg and 13.6 mg and 3.3 mg and 2.9 mg
[2]; EDO60: 60 mg/kg i.v. q7dx3, day 30 from inoculum
  TC-71 tumour weight, individual mice: 88.0 mg and 77.1 mg and 41.0 mg and 8.9 mg and 3.7 mg
[2]; EDO60: 60 mg/kg i.v. q7dx3, day 32 from inoculum
  TC-71 tumour weight, individual mice: 195.4 mg and 161.5 mg and 185.8 mg and 37.0 mg and 17.2 mg
[2]; EDO60: 60 mg/kg i.v. q7dx3, day 35 from inoculum
  TC-71 tumour weight, individual mice: 295.9 mg and 201.8 mg and 224.9 mg and 41.1 mg and 11.6 mg
[2]; EDO60: 60 mg/kg i.v. q7dx3, day 42 from inoculum
  TC-71 tumour weight, individual mice: 562.9071 mg and 681.301 mg and 589.6573 mg and 113.6766 mg and 36 mg
[2]; EDO60: 60 mg/kg i.v. q7dx3, day 45 from inoculum
  TC-71 tumour weight, individual mice: 889.1 mg and 725.2 mg and 1089.8 mg and 246.5 mg and 56.1 mg
[2]; EDO60: 60 mg/kg i.v. q7dx3, day 49 from inoculum
  TC-71 tumour weight, individual mice: 971.4 mg and 858.8 mg and 1414.8 mg and 475.3 mg and 102.8 mg and 29.0 mg
[2]; EDO60: 60 mg/kg i.v. q7dx3, day 53 from inoculum
  TC-71 tumour weight, individual mice: 1459.1 mg and 1050.5 mg and 2074.7 mg and 623.0 mg and 179.3 mg and 50.8 mg
[2]; EDO60: 60 mg/kg i.v. q7dx3, day 56 from inoculum
  TC-71 tumour weight, individual mice: 2228.2 mg and 2084.3 mg and 2978.8 mg and 1546.2 mg and 380.7 mg and 76.2 mg
[2]; EDO80: 80 mg/kg i.v. single dose, day 28 from inoculum
  TC-71 tumour weight, individual mice: 4.8 mg and 4.6 mg
[2]; EDO80: 80 mg/kg i.v. single dose, day 30 from inoculum
  TC-71 tumour weight, individual mice: 9.7 mg and 23.2 mg
[2]; EDO80: 80 mg/kg i.v. single dose, day 32 from inoculum
  TC-71 tumour weight, individual mice: 67.8 mg and 56.2 mg
[2]; EDO80: 80 mg/kg i.v. single dose, day 35 from inoculum
  TC-71 tumour weight, individual mice: 68.2 mg and 74.5 mg
[2]; EDO80: 80 mg/kg i.v. single dose, day 38 from inoculum
  TC-71 tumour weight, individual mice: 43.4 mg and 75.1 mg
[2]; EDO80: 80 mg/kg i.v. single dose, day 42 from inoculum
  TC-71 tumour weight, individual mice: 211.3 mg and 191.6 mg
[2]; EDO80: 80 mg/kg i.v. single dose, day 45 from inoculum
  TC-71 tumour weight, individual mice: 359.3 mg and 378.9 mg
[2]; EDO80: 80 mg/kg i.v. single dose, day 49 from inoculum
  TC-71 tumour weight, individual mice: 622.1 mg and 803.9 mg and 515.2 mg
